Test results taken from article PMC9330073, “Cargo Recognition Mechanisms of Yeast Myo2 Revealed by AlphaFold2-Powered Protein Complex Prediction” (Biomolecules, 2022).
Positions count from the first letter of the chain named. In names and notes the source's numbering stands. Results are given in words; binding and its absence hold for the method and conditions named. For some of these results: A result given as binding can be weak or reduced; the word gives no strength. For some of these results: Where a sequence is shown, tags or fusion partners need not be part of it. Values belong to the molecule of their own block, whether it stands above or below them.

The chains behind the UniProt entries cited, without tags or fusion partners. Where a name states a change or a piece, a line headed by the entry shows the natural chain unless it says otherwise.
UniProt P19524: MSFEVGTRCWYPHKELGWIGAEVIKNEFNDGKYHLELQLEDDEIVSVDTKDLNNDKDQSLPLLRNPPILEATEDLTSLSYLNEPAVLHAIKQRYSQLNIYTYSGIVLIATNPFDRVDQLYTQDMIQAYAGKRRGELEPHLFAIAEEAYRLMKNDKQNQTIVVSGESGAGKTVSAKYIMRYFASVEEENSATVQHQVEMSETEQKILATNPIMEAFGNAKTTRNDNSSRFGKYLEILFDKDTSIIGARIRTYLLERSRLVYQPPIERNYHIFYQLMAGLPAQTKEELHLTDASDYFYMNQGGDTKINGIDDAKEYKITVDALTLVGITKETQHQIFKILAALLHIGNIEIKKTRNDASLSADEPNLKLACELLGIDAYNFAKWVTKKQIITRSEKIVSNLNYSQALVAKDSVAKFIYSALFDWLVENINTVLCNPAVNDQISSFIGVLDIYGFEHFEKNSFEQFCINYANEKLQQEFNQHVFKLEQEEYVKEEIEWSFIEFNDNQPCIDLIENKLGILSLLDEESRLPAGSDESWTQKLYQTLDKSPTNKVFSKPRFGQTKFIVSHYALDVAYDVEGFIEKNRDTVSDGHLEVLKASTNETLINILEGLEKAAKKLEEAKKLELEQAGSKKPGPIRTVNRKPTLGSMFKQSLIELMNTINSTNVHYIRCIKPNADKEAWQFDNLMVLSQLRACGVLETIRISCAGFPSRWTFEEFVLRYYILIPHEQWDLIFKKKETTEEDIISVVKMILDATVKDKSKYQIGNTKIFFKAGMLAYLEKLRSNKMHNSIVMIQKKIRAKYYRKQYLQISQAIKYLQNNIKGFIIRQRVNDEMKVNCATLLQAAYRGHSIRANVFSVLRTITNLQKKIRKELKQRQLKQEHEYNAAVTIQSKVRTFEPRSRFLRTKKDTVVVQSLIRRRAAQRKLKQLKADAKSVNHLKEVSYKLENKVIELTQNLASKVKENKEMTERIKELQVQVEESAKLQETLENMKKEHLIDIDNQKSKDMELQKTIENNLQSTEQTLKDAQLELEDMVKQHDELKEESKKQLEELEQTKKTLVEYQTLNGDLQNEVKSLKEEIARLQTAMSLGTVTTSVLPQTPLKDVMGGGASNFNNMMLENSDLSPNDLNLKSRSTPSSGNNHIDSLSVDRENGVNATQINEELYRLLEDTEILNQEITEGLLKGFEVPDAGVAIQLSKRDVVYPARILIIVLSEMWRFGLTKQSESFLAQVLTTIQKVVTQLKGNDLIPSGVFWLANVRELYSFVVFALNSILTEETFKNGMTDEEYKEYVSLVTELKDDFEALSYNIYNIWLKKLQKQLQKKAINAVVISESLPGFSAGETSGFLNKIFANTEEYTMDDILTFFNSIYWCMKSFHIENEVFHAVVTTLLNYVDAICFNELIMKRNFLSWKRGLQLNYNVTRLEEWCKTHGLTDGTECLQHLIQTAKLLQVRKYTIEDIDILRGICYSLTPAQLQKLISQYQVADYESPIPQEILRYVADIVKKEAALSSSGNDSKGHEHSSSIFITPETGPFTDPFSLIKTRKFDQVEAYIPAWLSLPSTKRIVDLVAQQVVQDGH

What was measured:
[1] = biological target: T1, Kar9^C-MIS (Myo2-interacting sequence in the C-terminal region of Kar9) (Saccharomyces cerevisiae (strain S288c)) (UniProt P32526); assay: ITC; 500 μM Myo2-GTD in the syringe titrated into 50 μM Kar9-MIS or Pea2-MIS in the cell, 25 °C; one-site binding model; both purified
T1 sequence: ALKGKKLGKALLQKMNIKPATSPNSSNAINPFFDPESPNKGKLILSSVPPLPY

[2] = biological target: T2, Kar9^C-MIS K473E (Saccharomyces cerevisiae (strain S288c)) (UniProt P32526); assay: condition: 500 μM Myo2-GTD in the syringe, 50 μM Kar9-MIS in the cell; ITC; 500 μM Myo2-GTD in the syringe titrated into 50 μM Kar9-MIS or Pea2-MIS in the cell, 25 °C; one-site binding model; both purified
T2 sequence: T1 sequence with K14E

[3] = biological target: T3, GST-Pea2-CC1 F261Q (Saccharomyces cerevisiae (strain S288c)) (UniProt P40091); assay: condition: 500 μM Myo2-GTD in the syringe, 50 μM Pea2-MIS in the cell; ITC; 500 μM Myo2-GTD in the syringe titrated into 50 μM Kar9-MIS or Pea2-MIS in the cell, 25 °C; one-site binding model; both purified
T3 sequence: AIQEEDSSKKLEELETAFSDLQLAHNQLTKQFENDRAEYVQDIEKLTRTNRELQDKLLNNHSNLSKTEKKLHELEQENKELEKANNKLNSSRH

[4] = biological target: T4, GST-Pea2-CC1 R270E (Saccharomyces cerevisiae (strain S288c)) (UniProt P40091); assay: as above
T4 sequence: T3 sequence with Q27F, R36E

[5] = biological target: Myo2-GTD (globular tail domain of Myo2) (Saccharomyces cerevisiae (strain S288c)) (UniProt P19524); assay: SEC-MALS; 100 μL of 100 μM protein on Superdex 200 Increase 10/300 GL; 50 mM Tris-HCl pH 7.5, 100 mM NaCl, 1 mM EDTA, 1 mM DTT; both purified
[6] = biological target: Myo2-GTD (globular tail domain of Myo2) (Saccharomyces cerevisiae (strain S288c)) (UniProt P19524); assay: condition: 200 μM Vac17-MIS in the syringe, 20 μM Myo2-GTD in the cell; ITC; 200 μM Vac17-MIS in the syringe titrated into 20 μM Myo2-GTD in the cell, 25 °C; one-site binding model; both purified
[7] = biological target: Myo2-GTD (globular tail domain of Myo2) (Saccharomyces cerevisiae (strain S288c)) (UniProt P19524); assay: ITC; summary of affinities of cargo adaptors and Myo2-GTD variants (Figure 5B, Figure S7); which protein was in the syringe is not told for Smy1-MIS; both purified

Molecule: Myo2-GTD (globular tail domain of Myo2) (from UniProt P19524) (domain or fragment)
binding [1]: binds
binding [2]: no binding
binding [3]: no binding
binding [4]: no binding

B1: Vac17-MIS (Myo2-interacting sequence of Vac17) (domain or fragment, Saccharomyces cerevisiae (strain S288c), UniProt P25591 112-157, looked up)
chain: PNEAPNDSPQSQSTRSSLGSFQPRPLKIIERQRLCMVTPSKPPKKS
notes: Vac17 (vacuole-related protein 17), S. cerevisiae, region containing residues 112-157 (MIS); Named Trx-tagged in the light scattering; also called Trx-Vas17-MIS; Vac17-MIS wild-type; source: E. coli BL21(DE3), purified (Ni2+-NTA, size exclusion chromatography); not shown: Trx, N-terminal, kept
binding [5]: binds

Molecule: PNEAPNDSPQSQSTRSSLGSFQPRPQKIIERQRLCMVTPSKPPKKS (domain or fragment, UniProt P25591 112-157) [Vac17-MIS L137Q]
binding [6]: no binding

The remaining lines, values ahead:

binding [6]: no binding
Molecule: PNEAPNDSPQSQSTRSSLGSFQPRPLKIIEEQRLCMVTPSKPPKKS (domain or fragment, UniProt P25591 112-157) [Vac17-MIS R142E]

binding [6]: no binding
Molecule: PNEAPNDSPQSQSTRSSLGSFQPEPLKIIERQRLCMVTPSKPPKKS (domain or fragment, UniProt P25591 112-157) [Vac17-MIS R135E]

binding [6]: no binding
Molecule: PNEAPNDSPQSQSTRSSLGSFQPRPLKQIERQRLCMVTPSKPPKKS (domain or fragment, UniProt P25591 112-157) [Vac17-MIS I139Q]

binding [7]: binds
Molecule: SSSSIATTGSQESFVARPFKKGLNLHSIKVTSSTPK (domain or fragment) [Smy1-MIS (Myo2-interacting sequence of Smy1)]
